# Source: PubChem BioAssay AID1345085 (National Center for Advancing Translational Sciences (NCATS), 2018)
# This list was built around the results that the source calls inconclusive (neither active nor inactive); the mix of calls is not that of the screen. A potency beside an inconclusive call is a rough fit, not a confirmed value. Activity calls are given as the source filed them. Calls come from the whole dose curve; as a rule, active = well fitted cell-killing curve with a large enough effect; inconclusive = small, poorly fitted or top-dose-only effect, or effect the other way; inactive = no such curve, though single readings can be large or run the other way.
# Tested on: Hek293T
# Test: Confirmatory qHTS for gynecologic anti-cancer compounds from libraries of approved drugs and bioactive compounds; note: nearly all actives have a fitted effect of over 55% in size
# Settings: gynecologic cancer cell panel viability, ATPlite luminescence, 48 h; series mostly up to 57.6 µM
# Procedure, shortened: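 Cells (1,000/well) plated 16 h, then exposed 48 h at 37 °C to 11 concentrations (1:3) from 57.5 uM to 0.977 nM. Viability by ATPlite luminescence after 15 min; IC50 derived, with HEK 293T used for selectivity index.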
# Potency is the fitted concentration of half-maximal effect.
row,Compound,Potency
1,CCOC(=O)C1=C(C)NC2=C(C(=O)CC(C)(C)C2)C1c1ccc(-c2ccccc2)cc1 (centres undefined),"inconclusive: 8.63 µM [rising, partial curve, poor fit]"
2,Cc1cc(C2CCCCC2)n(O)c(=O)c1,active: 11.1 µM
3,CC(C)Oc1ccc(C(=O)NC(CNC(=O)CN(C)C)Cc2ccc(-c3cn4cccc(C(C)O)c4n3)cc2)cc1Cl (centres undefined),inactive
4,COc1cc(Nc2ncc3c(n2)-c2ccc(Cl)cc2C(c2c(F)cccc2OC)=NC3)ccc1C(=O)O,inactive
5,OCc1ccc(-c2ccc(-c3ccc(CO)s3)o2)s1,"inconclusive: 0.595 µM [cytotoxic, full curve, poor fit]"
6,C=CC(=O)Nc1cccc(Oc2nc(Nc3ccc(N4CCN(C)CC4)cc3)ncc2Cl)c1,"inconclusive: 30.6 µM [cytotoxic, single point]"
7,CNC(=O)CN1CCC(Oc2cc3c(Nc4cccc(Cl)c4F)ncnc3cc2OC)CC1,"inconclusive: 30.6 µM [cytotoxic, single point]"
8,CC[C@H](Nc1ncnc2nc[nH]c12)c1nc2cccc(F)c2c(=O)n1-c1ccccc1,"inconclusive: 0.0103 µM [cytotoxic, full curve, poor fit]"
9,O=c1[nH]c(=O)n([C@H]2C[C@H](O)[C@@H](CO)O2)cc1C(F)(F)F,"inconclusive: 12.2 µM [cytotoxic, single point]"
10,Cn1cnc2c(F)c(Nc3ccc(Br)cc3Cl)c(C(=O)NOCCO)cc21,"inconclusive: 13.7 µM [cytotoxic, full curve, poor fit]"
11,CC(Oc1ccc2[nH]nc(/C=C/c3cnn(CCO)c3)c2c1)c1c(Cl)cncc1Cl (centres undefined),"inconclusive: 8.63 µM [cytotoxic, full curve]"
12,CCCCc1oc2ccc(NS(C)(=O)=O)cc2c1C(=O)c1ccc(OCCCN(CCCC)CCCC)cc1,active: 27.3 µM
13,Cc1c(NC(=O)OCC2COCCN2)cn2ncnc(Nc3ccc4c(cnn4Cc4cccc(F)c4)c3)c12 (centres undefined),"inconclusive: 48.5 µM [cytotoxic, partial curve, poor fit]"
14,CC(C)(C)C(=O)OCOP(=O)(COCCn1cnc2c(N)ncnc21)OCOC(=O)C(C)(C)C,active: 3.43 µM
15,COc1cc(Nc2c(C#N)cnc3cc(OCCCN4CCN(C)CC4)c(OC)cc23)c(Cl)cc1Cl,"inconclusive: 34.3 µM [cytotoxic, partial curve, poor fit]"
16,O=C(O)C1(Cc2cccc(Nc3nccs3)n2)CCC(Oc2cccc(Cl)c2F)CC1 (centres undefined),"inconclusive: 0.0153 µM [cytotoxic, full curve]"
17,CC(C)n1c(/C=C/[C@@H](O)C[C@@H](O)CC(=O)O)c(-c2ccc(F)cc2)c2ccccc21,"inconclusive: 0.122 µM [cytotoxic, single point]"

# Not a retest: an excerpt of the list.
row,Compound,Potency
9,O=c1[nH]c(=O)n([C@H]2C[C@H](O)[C@@H](CO)O2)cc1C(F)(F)F,"inconclusive: 12.2 µM [cytotoxic, single point]"
10,Cn1cnc2c(F)c(Nc3ccc(Br)cc3Cl)c(C(=O)NOCCO)cc21,"inconclusive: 13.7 µM [cytotoxic, full curve, poor fit]"
11,CC(Oc1ccc2[nH]nc(/C=C/c3cnn(CCO)c3)c2c1)c1c(Cl)cncc1Cl (centres undefined),"inconclusive: 8.63 µM [cytotoxic, full curve]"
12,CCCCc1oc2ccc(NS(C)(=O)=O)cc2c1C(=O)c1ccc(OCCCN(CCCC)CCCC)cc1,active: 27.3 µM
13,Cc1c(NC(=O)OCC2COCCN2)cn2ncnc(Nc3ccc4c(cnn4Cc4cccc(F)c4)c3)c12 (centres undefined),"inconclusive: 48.5 µM [cytotoxic, partial curve, poor fit]"
14,CC(C)(C)C(=O)OCOP(=O)(COCCn1cnc2c(N)ncnc21)OCOC(=O)C(C)(C)C,active: 3.43 µM
15,COc1cc(Nc2c(C#N)cnc3cc(OCCCN4CCN(C)CC4)c(OC)cc23)c(Cl)cc1Cl,"inconclusive: 34.3 µM [cytotoxic, partial curve, poor fit]"
16,O=C(O)C1(Cc2cccc(Nc3nccs3)n2)CCC(Oc2cccc(Cl)c2F)CC1 (centres undefined),"inconclusive: 0.0153 µM [cytotoxic, full curve]"
17,CC(C)n1c(/C=C/[C@@H](O)C[C@@H](O)CC(=O)O)c(-c2ccc(F)cc2)c2ccccc21,"inconclusive: 0.122 µM [cytotoxic, single point]"

# Going on with the list:

row,Compound,Potency
1,O=C1NC(=O)C(c2cnc3ccccn23)=C1c1cn2c3c(cccc13)CN(C(=O)N1CCOCC1)CC2,"inconclusive: 0.863 µM [rising, full curve, poor fit]"
2,CC(C)n1nc(-c2cc3cc(O)ccc3[nH]2)c2c(N)ncnc21,active: 6.85 µM
3,CN(C)C(CCOc1cccc2ccccc12)c1ccccc1 (centres undefined),inactive
4,CC(=O)Nc1cccc(-n2c(=O)n(C3CC3)c(=O)c3c(Nc4ccc(I)cc4F)n(C)c(=O)c(C)c32)c1,"inconclusive: 0.0049 µM [cytotoxic, full curve]"
5,Nc1cccc(-c2cc3c(Oc4cccc(O)c4)ncnc3[nH]2)c1,"inconclusive: 0.0153 µM [cytotoxic, full curve, poor fit]"
6,CC1=C(/C=C/C(C)=C/C=C/C(C)=C/C(=O)Nc2ccc(O)cc2)C(C)(C)CCC1,"inconclusive: 34.3 µM [cytotoxic, partial curve, poor fit]"
7,O=C(Nc1cccnc1)N1CCC(Cc2cccc(Oc3ccc(C(F)(F)F)cn3)c2)CC1,"inconclusive: 17.2 µM [cytotoxic, partial curve, poor fit]"
8,COc1ccc(-c2ccc3c(N4CCOCC4C)nc(N4CCOCC4C)nc3n2)cc1CO (centres undefined),"inconclusive: 0.485 µM [cytotoxic, full curve]"
9,CNC(=O)c1nn(C)c2c1C(C)(C)Cc1cnc(Nc3ccc(N4CCN(C)CC4)cc3)nc1-2,active: 4.32 µM
10,CCOc1ccc(Nc2nc(-c3c(C)nc4ccccn34)cs2)cc1,"inconclusive: 0.0544 µM [cytotoxic, full curve, poor fit]"
11,COc1cccc2c1C(=O)c1c(O)c3c(c(O)c1C2=O)C[C@@](O)(C(=O)CO)C[C@@H]3O[C@H]1C[C@H](N)[C@H](O)[C@H](C)O1,active: 3.85 µM
12,COc1cc2c(cc1-c1c(C)noc1C)ncc1[nH]c(=O)n(C(C)c3ccccn3)c12 (centres undefined),inactive
13,C[C@@H](Oc1cc(-c2cnn(C3CCNCC3)c2)cnc1N)c1c(Cl)ccc(F)c1Cl,active: 21.7 µM
14,COc1cc(Nc2ncc(F)c(Nc3ccc4c(n3)N(COP(=O)(O)O)C(=O)C(C)(C)O4)n2)cc(OC)c1OC,inactive
15,Cn1cnc2c(F)c(Nc3ccc(Br)cc3F)c(C(=O)NOCCO)cc21,"inconclusive: 0.153 µM [cytotoxic, full curve, poor fit]"
16,CCN[C@H]1C[C@H](C)S(=O)(=O)c2sc(S(N)(=O)=O)cc21,inactive
17,O=c1[nH]c(=O)n([C@H]2C[C@H](O)[C@@H](CO)O2)cc1Br,"inconclusive: 13.7 µM [rising, single point]"
